The source of these data is PMC3395832.

Amino acid sequences for entries named in this document (tags omitted).
UniProt F5HCV3: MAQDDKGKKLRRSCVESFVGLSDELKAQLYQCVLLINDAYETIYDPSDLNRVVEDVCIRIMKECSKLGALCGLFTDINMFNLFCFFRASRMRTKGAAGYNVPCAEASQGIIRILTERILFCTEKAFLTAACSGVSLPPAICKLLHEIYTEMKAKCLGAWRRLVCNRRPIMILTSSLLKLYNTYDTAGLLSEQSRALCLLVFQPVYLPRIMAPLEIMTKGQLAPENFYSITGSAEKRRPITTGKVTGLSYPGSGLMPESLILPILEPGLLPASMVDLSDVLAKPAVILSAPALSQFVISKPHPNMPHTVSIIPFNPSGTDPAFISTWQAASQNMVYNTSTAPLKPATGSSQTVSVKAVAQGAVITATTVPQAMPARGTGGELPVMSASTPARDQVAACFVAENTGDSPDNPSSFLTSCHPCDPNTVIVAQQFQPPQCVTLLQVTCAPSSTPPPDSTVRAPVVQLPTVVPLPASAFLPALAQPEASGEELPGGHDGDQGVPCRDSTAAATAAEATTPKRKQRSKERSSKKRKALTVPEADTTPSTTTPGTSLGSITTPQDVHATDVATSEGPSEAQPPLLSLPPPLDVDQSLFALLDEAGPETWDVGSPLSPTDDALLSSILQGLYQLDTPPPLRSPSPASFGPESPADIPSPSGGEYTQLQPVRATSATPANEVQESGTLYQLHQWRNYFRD
UniProt Q13547: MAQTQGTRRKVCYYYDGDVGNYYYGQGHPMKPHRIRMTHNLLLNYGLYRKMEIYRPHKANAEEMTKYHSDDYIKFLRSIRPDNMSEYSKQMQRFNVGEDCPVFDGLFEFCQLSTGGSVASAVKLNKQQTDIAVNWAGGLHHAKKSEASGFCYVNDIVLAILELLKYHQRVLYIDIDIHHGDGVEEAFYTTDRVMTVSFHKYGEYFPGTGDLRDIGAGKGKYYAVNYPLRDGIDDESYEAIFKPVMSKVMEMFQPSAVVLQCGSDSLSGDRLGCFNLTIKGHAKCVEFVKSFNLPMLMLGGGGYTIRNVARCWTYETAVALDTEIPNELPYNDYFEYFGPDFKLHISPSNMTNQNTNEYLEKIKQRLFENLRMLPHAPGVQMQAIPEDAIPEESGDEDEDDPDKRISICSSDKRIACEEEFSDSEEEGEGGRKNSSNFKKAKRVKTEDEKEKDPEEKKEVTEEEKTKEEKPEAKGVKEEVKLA
UniProt P09874: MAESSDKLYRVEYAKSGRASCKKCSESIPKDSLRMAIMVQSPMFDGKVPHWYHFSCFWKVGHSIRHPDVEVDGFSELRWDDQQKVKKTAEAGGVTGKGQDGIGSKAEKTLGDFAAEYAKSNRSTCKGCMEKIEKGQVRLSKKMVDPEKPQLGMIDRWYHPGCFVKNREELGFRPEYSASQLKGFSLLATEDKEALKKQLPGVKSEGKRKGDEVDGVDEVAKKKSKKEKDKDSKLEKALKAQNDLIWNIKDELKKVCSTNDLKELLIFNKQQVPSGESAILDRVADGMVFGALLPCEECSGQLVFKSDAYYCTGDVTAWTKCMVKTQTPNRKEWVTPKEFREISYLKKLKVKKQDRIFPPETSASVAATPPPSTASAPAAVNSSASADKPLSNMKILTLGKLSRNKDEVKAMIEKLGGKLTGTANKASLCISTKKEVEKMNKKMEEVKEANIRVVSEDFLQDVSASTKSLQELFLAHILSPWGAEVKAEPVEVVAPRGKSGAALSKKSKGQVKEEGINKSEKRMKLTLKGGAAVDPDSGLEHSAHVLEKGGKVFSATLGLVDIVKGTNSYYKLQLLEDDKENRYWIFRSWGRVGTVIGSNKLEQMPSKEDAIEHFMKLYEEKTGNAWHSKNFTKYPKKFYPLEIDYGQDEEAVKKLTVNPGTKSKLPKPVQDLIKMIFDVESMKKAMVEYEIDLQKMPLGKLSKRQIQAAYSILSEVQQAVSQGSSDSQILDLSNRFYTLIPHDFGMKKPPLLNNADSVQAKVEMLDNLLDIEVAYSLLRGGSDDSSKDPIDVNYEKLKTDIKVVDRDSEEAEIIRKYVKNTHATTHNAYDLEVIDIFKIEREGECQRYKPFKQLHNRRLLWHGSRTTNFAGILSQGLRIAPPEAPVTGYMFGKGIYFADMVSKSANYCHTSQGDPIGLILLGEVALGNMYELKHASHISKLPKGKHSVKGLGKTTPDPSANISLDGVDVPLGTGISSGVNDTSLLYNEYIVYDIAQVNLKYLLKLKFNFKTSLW

The target of experiment [1] is FLAG-tagged KSHV replication and transcription activator (K-RTA), wild type (Kaposi's sarcoma-associated herpesvirus (KSHV)) (UniProt F5HCV3). The experiment in a line: co-IP.
The target in experiment [2] is K-RTA expressed from the KSHV genome in ERKV cells (Kaposi's sarcoma-associated herpesvirus (KSHV)) (UniProt F5HCV3). The experiment in a line: co-IP.

Results are given in words; binding and its absence hold for the method and conditions named. In cells and extracts the contact can be indirect. Some entries that bind do so weakly or less than the wild type.

With “HDAC1 (from UniProt Q13547 1-482) (enzyme)”, in experiment [1], the binding entry is given as “binds”. As to “PARP1 (from UniProt P09874 1-1014) (enzyme)”, the binding entry in experiment [2] and in experiment [1] was “binds” in each case.
